The data set is described as follows: Fluorescence quenching efficiency of Glyco-BABS versus EDANS. Conditions: in PBS, ratio of slopes of fluorescence vs concentration against EDANS. The format is physicochemical.
For the compound `CC(=O)N[C@H]1[C@H](O[C@@H](OCCOCCn2cc(CNC(=O)c3ccc(/N=N/c4ccc(N(C)C)cc4)cc3)nn2)[C@@](C)(Br)C(=O)NCCNc2cccc3c(S(=O)(=O)O)cccc23)O[C@H](CO)[C@@H](O)[C@@H]1O` [Compound 1, 5-((2-((2R,3R)-3-(((2S,3R,4R,5S,6R)-3-acetamido-4,5-dihydroxy-6-(hydroxymethyl)tetrahydro-2H-pyran-2-yl)oxy)-2-bromo-3-(2-(2-(4-((4-((E)-(4-(dimethylamino)phenyl)diazenyl)benzamido)methyl)-1H-1,2,3-triazol-1-yl)ethoxy)ethoxy)-2-methylpropanamido)ethyl)amino)naphthalene-1-sulfonic Acid], the quenching efficiency was 99.93%.
Consider `CC(=O)N[C@H]1[C@H](O[C@@H](OCCOCCn2cc(CNC(=O)c3ccc(/N=N/c4ccc(N(C)C)cc4)cc3)nn2)[C@@](C)(O)C(=O)NCCNc2cccc3c(S(=O)(=O)O)cccc23)O[C@H](CO)[C@@H](O)[C@@H]1O` [Compound 2, 5-((2-((2R,3R)-3-(((2S,3R,4R,5S,6R)-3-acetamido-4,5-dihydroxy-6-(hydroxymethyl)tetrahydro-2H-pyran-2-yl)oxy)-3-(2-(2-(4-((4-((E)-(4-(dimethylamino)phenyl)diazenyl)benzamido)methyl)-1H-1,2,3-triazol-1-yl)ethoxy)ethoxy)-2-hydroxy-2-methylpropanamido)ethyl)amino)naphthalene-1-sulfonic Acid], for which the quenching efficiency is 99.89%.
In the case of `CN(C)c1ccc(/N=N/c2ccc(C(=O)NCc3cn(CCOCCO[C@H](O[C@@H]4O[C@H](CO)[C@@H](O)[C@H](O)[C@H]4O)[C@@](C)(O)C(=O)NCCNc4cccc5c(S(=O)(=O)O)cccc45)nn3)cc2)cc1` [Compound 6, 5-((2-((2R,3R)-3-(2-(2-(4-((4-((E)-(4-(dimethylamino)phenyl)diazenyl)benzamido)methyl)-1H-1,2,3-triazol-1-yl)ethoxy)ethoxy)-2-hydroxy-2-methyl-3-(((2S,3R,4S,5S,6R)-3,4,5-trihydroxy-6-(hydroxymethyl)tetrahydro-2H-pyran-2-yl)oxy)propanamido)ethyl)amino)naphthalene-1-sulfonic Acid], the quenching efficiency amounted to 99.95%.
Regarding `CN(C)c1ccc(/N=N/c2ccc(C(=O)NCc3cn(CCOCCOC(CC(=O)NCCNc4cccc5c(S(=O)(=O)O)cccc45)O[C@@H]4O[C@H](CO)[C@@H](O)[C@H](O)[C@H]4O)nn3)cc2)cc1` (stereo partly drawn) [Compound 7, 5-((2-(3-(2-(2-(4-((4-((E)-(4-(dimethylamino)phenyl)diazenyl)benzamido)methyl)-1H-1,2,3-triazol-1-yl)ethoxy)ethoxy)-3-(((2S,3R,4S,5S,6R)-3,4,5-trihydroxy-6-(hydroxymethyl)tetrahydro-2H-pyran-2-yl)oxy)propanamido)ethyl)amino)naphthalene-1-sulfonic Acid], the quenching efficiency is listed as 99.87%.

Source of the values: patent US11396522B2, “Bis-acetal-based substrates for imaging exo-glycosidase activity” (ALECTOS THERAPEUTICS INC., priority 2017, dated 2022).
